Data as given in PubChem BioAssay AID1259293 (Sanger Institute, 2017).
Purpose: 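Which silenced kinases act in synergy with BYL719, cetuximab or trametinib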 (follow-up of hits). Cells: human NCI-H716 colorectal cancer cells. Knock-down reagent: single siRNA against human genes. Challenge: anchor drugs BYL719 at 1 µM, cetuximab at 5 µg/ml or trametinib at 10 nM, or DMSO vehicle alone. Measurement: 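For every anchor drug, viability versus control pool 2 (non-targeting) and a synergy score of drug with siRNA, each a replicate average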. Direction: synergy score with BYL719 and synergy score with cetuximab and synergy score with trametinib: higher = stronger synthetic lethal effect with drug. Hit rule: 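An siRNA is active if its synergy score is above 0.10 for one or more of the three anchor drugs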. Meaning of the calls: active = synergy with at least one drug; inactive = no synergy with any drug.
In all, the deposit lists 160 reagents; below is an unselected part. In the full data, 46 (29%) are marked active. 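The method behind the synergy score is not described; each call refers to one siRNA in a single cell line.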 The numbers tell different reagents against one gene apart. Not all columns of the deposit are shown. Not stated in the record: the amount of reagent, the time to read-out.

NR2F2 #1
- synergy score with BYL719: -0.155
- synergy score with cetuximab: -0.109
- synergy score with trametinib: -0.0962
- call: inactive

NR2F2 #2
- synergy score with BYL719: -0.155
- synergy score with cetuximab: -0.109
- synergy score with trametinib: -0.325
- call: inactive

NR2F2 #3
- synergy score with BYL719: -0.381
- synergy score with cetuximab: -0.225
- synergy score with trametinib: -0.347
- call: inactive

NR2F2 #4
- synergy score with BYL719: -0.427
- synergy score with cetuximab: -0.4
- synergy score with trametinib: -0.101
- call: inactive

HSPB8 #1
- synergy score with BYL719: 0.0538
- synergy score with cetuximab: -0.13
- synergy score with trametinib: -0.0661
- call: inactive

HSPB8 #2
- synergy score with BYL719: -0.122
- synergy score with cetuximab: -0.0735
- synergy score with trametinib: -0.146
- call: inactive

HSPB8 #3
- synergy score with BYL719: -0.179
- synergy score with cetuximab: 0.101
- synergy score with trametinib: -0.401
- call: active

HSPB8 #4
- synergy score with BYL719: -0.256
- synergy score with cetuximab: 0.00528
- synergy score with trametinib: -0.00567
- call: inactive

STK36 #1
- synergy score with BYL719: 0.0131
- synergy score with cetuximab: -0.0995
- synergy score with trametinib: 0.154
- call: active

STK36 #2
- synergy score with BYL719: -0.244
- synergy score with cetuximab: -0.179
- synergy score with trametinib: -0.214
- call: inactive

STK36 #3
- synergy score with BYL719: -0.253
- synergy score with cetuximab: -0.189
- synergy score with trametinib: 0.117
- call: active

STK36 #4
- synergy score with BYL719: -0.485
- synergy score with cetuximab: -0.123
- synergy score with trametinib: -0.175
- call: inactive

PFKFB3 #1
- synergy score with BYL719: -0.467
- synergy score with cetuximab: -0.168
- synergy score with trametinib: -0.207
- call: inactive

PFKFB3 #2
- synergy score with BYL719: -0.0368
- synergy score with cetuximab: -0.169
- synergy score with trametinib: 0.0524
- call: inactive

PFKFB3 #3
- synergy score with BYL719: -0.179
- synergy score with cetuximab: -0.0191
- synergy score with trametinib: -0.194
- call: inactive

PFKFB3 #4
- synergy score with BYL719: -0.0114
- synergy score with cetuximab: 0.000997
- synergy score with trametinib: 0.01
- call: inactive

PIK3CA #1
- synergy score with BYL719: 0.0775
- synergy score with cetuximab: -0.248
- synergy score with trametinib: -0.104
- call: inactive

PIK3CA #2
- synergy score with BYL719: -0.127
- synergy score with cetuximab: -0.116
- synergy score with trametinib: 0.031
- call: inactive

PIK3CA #3
- synergy score with BYL719: -0.165
- synergy score with cetuximab: -0.191
- synergy score with trametinib: 0.284
- call: active

PIK3CA #4
- synergy score with BYL719: -0.179
- synergy score with cetuximab: -0.109
- synergy score with trametinib: -0.281
- call: inactive

AK2 #1
- synergy score with BYL719: -0.189
- synergy score with cetuximab: -0.229
- synergy score with trametinib: -0.075
- call: inactive

AK2 #2
- synergy score with BYL719: -0.29
- synergy score with cetuximab: 0.0359
- synergy score with trametinib: 0.0527
- call: inactive

AK2 #3
- synergy score with BYL719: -0.111
- synergy score with cetuximab: -0.272
- synergy score with trametinib: 0.062
- call: inactive

AK2 #4
- synergy score with BYL719: -0.179
- synergy score with cetuximab: -0.00815
- synergy score with trametinib: 0.0886
- call: inactive

Reformatted: 4 of the entries above
{"target":"PFKFB3","siRNA no.":1,"synergy score with BYL719":-0.467,"synergy score with cetuximab":-0.168,"synergy score with trametinib":-0.207,"call":"inactive"}
{"target":"PFKFB3","siRNA no.":2,"synergy score with BYL719":-0.0368,"synergy score with cetuximab":-0.169,"synergy score with trametinib":0.0524,"call":"inactive"}
{"target":"PFKFB3","siRNA no.":3,"synergy score with BYL719":-0.179,"synergy score with cetuximab":-0.0191,"synergy score with trametinib":-0.194,"call":"inactive"}
{"target":"PFKFB3","siRNA no.":4,"synergy score with BYL719":-0.0114,"synergy score with cetuximab":0.000997,"synergy score with trametinib":0.01,"call":"inactive"}
